From the supplement of paper PMC10849652
This is one part of the list.

The chains behind the UniProt entries cited, without tags or fusion partners. Where a name states a change or a piece, a line headed by the entry shows the natural chain unless it says otherwise.
UniProt O96017, whole entry, looked up: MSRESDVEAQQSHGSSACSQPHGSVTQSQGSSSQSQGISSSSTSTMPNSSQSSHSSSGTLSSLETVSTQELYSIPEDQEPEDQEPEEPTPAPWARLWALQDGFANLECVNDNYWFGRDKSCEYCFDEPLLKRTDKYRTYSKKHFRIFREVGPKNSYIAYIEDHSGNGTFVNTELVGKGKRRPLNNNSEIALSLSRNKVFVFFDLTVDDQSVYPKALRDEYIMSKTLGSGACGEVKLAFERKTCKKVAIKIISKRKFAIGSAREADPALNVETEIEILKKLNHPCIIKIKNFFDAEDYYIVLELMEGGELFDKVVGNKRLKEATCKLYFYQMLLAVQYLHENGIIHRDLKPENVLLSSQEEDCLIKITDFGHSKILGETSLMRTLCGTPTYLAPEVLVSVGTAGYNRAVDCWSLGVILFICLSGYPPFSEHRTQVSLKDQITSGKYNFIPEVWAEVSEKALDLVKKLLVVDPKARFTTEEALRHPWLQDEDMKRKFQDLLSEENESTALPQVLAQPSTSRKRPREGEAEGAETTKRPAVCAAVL
UniProt P23528, whole entry, looked up: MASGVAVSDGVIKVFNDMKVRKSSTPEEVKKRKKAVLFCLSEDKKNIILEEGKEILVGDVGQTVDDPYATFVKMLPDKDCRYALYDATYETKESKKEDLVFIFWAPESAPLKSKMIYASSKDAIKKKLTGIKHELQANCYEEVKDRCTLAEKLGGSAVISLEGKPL
UniProt Q9H5V8, whole entry, looked up: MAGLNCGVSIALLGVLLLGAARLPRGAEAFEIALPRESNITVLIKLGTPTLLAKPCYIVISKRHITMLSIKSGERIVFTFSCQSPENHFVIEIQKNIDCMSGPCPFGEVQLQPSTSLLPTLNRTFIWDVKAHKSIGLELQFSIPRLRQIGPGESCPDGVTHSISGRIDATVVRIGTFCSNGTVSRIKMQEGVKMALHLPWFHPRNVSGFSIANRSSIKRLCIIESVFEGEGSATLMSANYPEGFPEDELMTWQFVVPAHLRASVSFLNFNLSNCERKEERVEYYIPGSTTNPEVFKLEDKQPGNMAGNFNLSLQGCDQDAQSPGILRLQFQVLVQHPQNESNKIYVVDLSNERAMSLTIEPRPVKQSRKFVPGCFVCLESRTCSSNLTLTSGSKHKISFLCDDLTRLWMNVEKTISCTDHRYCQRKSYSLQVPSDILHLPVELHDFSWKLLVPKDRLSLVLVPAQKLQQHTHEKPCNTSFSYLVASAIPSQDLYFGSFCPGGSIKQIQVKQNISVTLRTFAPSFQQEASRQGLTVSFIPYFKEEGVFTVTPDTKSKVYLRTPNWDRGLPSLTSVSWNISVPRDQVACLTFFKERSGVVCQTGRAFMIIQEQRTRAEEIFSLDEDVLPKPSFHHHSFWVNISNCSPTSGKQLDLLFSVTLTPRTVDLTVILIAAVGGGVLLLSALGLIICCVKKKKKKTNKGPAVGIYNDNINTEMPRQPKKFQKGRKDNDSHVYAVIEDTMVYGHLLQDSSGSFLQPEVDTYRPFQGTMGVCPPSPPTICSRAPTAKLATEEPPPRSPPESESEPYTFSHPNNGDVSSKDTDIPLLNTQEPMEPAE
UniProt O95674: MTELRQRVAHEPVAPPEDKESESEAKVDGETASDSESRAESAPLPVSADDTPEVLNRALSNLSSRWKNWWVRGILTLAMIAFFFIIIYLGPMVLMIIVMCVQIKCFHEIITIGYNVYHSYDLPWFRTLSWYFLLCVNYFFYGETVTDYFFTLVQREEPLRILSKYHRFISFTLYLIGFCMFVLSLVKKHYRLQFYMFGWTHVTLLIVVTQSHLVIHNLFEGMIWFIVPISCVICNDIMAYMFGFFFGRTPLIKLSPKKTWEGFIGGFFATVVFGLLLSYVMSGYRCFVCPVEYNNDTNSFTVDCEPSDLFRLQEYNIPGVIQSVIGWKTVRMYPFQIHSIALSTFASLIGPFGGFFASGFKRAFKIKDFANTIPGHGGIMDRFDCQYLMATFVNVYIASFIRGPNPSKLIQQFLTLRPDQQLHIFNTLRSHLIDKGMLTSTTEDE
UniProt Q5VT25: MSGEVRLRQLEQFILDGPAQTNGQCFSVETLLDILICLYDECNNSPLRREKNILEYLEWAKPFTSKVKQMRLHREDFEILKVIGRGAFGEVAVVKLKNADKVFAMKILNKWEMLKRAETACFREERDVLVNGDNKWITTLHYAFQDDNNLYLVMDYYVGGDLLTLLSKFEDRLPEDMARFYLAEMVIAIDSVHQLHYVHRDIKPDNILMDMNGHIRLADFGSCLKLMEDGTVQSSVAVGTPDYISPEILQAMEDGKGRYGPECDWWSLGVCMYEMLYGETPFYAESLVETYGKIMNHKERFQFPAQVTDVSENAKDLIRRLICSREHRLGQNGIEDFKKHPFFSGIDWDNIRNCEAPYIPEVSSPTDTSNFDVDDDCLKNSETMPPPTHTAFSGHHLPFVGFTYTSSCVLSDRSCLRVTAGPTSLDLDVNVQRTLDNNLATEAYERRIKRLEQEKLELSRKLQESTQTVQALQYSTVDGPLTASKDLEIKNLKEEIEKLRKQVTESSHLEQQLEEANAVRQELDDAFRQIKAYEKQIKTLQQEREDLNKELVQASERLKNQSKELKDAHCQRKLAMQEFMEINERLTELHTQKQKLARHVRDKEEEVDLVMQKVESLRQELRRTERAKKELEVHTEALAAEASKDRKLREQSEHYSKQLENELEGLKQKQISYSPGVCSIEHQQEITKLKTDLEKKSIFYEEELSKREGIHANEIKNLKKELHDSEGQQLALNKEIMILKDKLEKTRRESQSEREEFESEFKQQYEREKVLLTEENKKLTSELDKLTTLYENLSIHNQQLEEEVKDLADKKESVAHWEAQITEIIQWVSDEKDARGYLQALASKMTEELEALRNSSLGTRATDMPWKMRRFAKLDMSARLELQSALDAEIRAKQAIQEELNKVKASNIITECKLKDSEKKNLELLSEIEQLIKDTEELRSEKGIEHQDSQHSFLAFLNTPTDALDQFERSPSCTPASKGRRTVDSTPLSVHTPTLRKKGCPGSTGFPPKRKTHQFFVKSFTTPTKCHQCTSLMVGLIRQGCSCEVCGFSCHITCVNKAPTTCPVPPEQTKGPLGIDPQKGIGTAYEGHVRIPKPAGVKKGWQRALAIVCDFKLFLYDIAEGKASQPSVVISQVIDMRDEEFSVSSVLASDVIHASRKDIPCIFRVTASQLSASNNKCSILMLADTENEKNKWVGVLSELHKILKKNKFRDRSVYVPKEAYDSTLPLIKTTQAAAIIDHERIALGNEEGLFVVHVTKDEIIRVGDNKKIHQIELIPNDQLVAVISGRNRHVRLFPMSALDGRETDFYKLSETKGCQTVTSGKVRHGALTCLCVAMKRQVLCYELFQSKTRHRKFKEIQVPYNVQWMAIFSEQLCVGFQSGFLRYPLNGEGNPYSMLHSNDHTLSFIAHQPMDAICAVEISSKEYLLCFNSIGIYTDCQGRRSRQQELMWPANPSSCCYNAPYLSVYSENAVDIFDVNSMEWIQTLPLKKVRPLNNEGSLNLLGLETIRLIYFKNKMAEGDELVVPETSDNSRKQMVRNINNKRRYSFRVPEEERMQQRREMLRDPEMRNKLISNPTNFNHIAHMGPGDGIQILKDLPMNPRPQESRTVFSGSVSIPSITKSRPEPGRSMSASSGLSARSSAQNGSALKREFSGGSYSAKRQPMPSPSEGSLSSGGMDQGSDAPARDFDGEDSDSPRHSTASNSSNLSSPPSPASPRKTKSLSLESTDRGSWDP
UniProt Q9Y6K0: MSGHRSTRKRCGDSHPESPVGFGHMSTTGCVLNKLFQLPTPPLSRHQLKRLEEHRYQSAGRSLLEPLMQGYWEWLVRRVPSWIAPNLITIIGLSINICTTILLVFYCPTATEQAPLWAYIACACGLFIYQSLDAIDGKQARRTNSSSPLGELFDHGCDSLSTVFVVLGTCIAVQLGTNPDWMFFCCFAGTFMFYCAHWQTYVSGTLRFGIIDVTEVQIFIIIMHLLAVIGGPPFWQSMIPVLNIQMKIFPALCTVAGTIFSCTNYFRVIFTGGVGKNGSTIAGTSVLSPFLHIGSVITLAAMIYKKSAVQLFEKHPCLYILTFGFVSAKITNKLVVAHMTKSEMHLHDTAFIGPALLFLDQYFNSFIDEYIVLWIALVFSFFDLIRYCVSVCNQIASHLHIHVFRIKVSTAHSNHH
UniProt Q96JM3: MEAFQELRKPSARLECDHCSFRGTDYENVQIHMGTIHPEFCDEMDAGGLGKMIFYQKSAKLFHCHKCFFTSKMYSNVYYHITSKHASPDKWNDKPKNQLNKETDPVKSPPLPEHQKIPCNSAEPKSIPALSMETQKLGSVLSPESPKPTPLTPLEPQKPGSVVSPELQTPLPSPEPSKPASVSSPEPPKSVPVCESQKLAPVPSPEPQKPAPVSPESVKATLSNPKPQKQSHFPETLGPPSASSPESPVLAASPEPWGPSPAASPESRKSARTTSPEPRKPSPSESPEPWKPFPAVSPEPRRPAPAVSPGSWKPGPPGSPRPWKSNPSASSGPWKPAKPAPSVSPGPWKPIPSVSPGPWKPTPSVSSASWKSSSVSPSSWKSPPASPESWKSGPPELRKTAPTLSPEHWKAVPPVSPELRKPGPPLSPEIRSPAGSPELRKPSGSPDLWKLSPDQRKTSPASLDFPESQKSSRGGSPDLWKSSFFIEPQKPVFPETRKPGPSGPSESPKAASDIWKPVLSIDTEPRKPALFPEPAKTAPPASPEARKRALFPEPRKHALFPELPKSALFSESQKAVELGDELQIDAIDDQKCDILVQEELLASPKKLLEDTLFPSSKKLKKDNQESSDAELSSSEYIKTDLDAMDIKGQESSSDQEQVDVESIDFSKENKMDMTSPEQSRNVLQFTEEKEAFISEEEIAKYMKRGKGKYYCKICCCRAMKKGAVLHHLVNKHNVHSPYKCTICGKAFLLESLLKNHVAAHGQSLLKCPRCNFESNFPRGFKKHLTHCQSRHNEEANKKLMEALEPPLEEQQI
UniProt Q96SZ6: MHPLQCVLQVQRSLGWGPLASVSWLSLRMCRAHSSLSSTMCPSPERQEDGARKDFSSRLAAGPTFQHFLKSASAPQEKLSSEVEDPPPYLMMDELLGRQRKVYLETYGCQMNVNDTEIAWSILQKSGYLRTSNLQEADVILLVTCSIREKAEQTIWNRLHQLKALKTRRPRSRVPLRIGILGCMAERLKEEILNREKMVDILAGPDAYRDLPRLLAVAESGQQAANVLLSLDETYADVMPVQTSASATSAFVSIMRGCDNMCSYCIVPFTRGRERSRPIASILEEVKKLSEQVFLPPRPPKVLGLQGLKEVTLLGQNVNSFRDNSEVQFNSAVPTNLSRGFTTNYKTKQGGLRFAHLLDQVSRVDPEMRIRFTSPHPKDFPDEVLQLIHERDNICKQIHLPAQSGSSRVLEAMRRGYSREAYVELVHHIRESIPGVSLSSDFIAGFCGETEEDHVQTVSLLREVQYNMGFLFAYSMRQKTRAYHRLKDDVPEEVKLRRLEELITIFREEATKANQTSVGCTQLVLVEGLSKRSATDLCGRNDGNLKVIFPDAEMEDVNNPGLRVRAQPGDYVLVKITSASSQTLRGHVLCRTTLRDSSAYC
UniProt Q96FF9: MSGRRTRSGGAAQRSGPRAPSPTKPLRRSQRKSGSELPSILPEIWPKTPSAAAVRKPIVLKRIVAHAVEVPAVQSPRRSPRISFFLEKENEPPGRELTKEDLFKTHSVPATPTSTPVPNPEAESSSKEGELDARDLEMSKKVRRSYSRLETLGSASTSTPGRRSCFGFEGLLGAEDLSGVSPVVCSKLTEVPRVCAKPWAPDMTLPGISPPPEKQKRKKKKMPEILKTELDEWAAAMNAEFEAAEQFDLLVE
UniProt Q8N5B7: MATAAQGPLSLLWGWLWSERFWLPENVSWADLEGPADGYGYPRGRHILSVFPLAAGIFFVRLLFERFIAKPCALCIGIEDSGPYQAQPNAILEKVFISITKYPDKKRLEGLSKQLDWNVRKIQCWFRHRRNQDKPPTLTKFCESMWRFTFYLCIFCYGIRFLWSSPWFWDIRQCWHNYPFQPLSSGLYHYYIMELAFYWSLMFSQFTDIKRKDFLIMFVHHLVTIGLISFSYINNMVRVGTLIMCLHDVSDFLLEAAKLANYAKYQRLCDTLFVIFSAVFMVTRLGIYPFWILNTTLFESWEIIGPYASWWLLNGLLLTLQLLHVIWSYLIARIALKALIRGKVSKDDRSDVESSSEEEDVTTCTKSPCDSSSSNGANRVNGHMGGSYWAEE
UniProt Q99618: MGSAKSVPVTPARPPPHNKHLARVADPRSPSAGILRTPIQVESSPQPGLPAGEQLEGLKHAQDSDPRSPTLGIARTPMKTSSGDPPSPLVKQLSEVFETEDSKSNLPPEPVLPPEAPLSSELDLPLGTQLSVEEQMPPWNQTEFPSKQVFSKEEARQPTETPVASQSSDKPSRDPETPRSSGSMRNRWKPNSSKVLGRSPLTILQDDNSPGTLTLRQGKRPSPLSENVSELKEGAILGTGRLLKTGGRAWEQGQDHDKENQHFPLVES

These targets were tested with FC(F)(F)c1ccc(/C=C/c2nc(COc3ccc(CCCCn4ccnn4)cc3)co2)cc1 [mubritinib] (assay: log2 fold change, soluble protein after heating vs DMSO (PISA); higher = thermal stabilisation; K562 cells, 10 uM, 30 min; active = over 0.2 and 3.5 SD of the protein, either way, in both replicates (recomputed)).
Procedure, shortened: (§1)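 K562 cells at 2×10^6 cells/mL were treated for 30 min with 10 μM compound, and aliquots were heated for 3 min over 48°C-58°C before pooling. Extraction used PBS with 0.5% NP-40 at 4°C, and soluble protein was the supernatant after 21,000xg for 90 min, measured by TMTpro 16plex LC-MS/MS with channel sums equalised. Thermal stability values, relative to control samples and from duplicates, are log2 fold changes.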

| Target | log2 fold change |
| --- | --- |
| CHEK2 isoform 9 (UniProt O96017) | inactive: 0.057 |
| CFL1 (UniProt P23528) | inactive: 0.062 |
| CDCP1 (UniProt Q9H5V8) | inactive: 0.102 |
| CDS2 (UniProt O95674) | inactive: 0.033 |
| CDC42BPA isoform 6 (UniProt Q5VT25) | inactive: 0.037 |
| CEPT1 (UniProt Q9Y6K0) | inactive: -0.012 |
| CHAMP1 (UniProt Q96JM3) | inactive: 0.056 |
| CGGBP1 (UniProt Q9UFW8) | inactive: 0.058 |
| CDK5RAP1 (UniProt Q96SZ6) | inactive: -0.03 |
| CERS2 (UniProt Q96G23) | inactive: -0.03 |
| CDK16 isoform 2 (UniProt Q00536) | inactive: 0.035 |
| CDCA5 (UniProt Q96FF9) | inactive: -0.009 |
| CHMP4C (UniProt Q96CF2) | inactive: 0.039 |
| CELF2 isoform 3 (UniProt O95319) | inactive: -0.006 |
| CERS5 (UniProt Q8N5B7) | inactive: 0.039 |
| CDCA3 (UniProt Q99618) | inactive: 0.025 |

Each target was assayed with NC(=O)Nc1cc(-c2cccc(F)c2)sc1C(=O)N[C@H]1CCCNC1 in the same assay as above.
Procedure, shortened: as §1

| Target | log2 fold change |
| --- | --- |
| CHIC2 (UniProt Q9UKJ5) | inactive: -0.036 |
| CFDP1 (UniProt Q9UEE9) | inactive: 0.041 |
| CHMP2A (UniProt O43633) | inactive: 0.113 |
| CHD4 isoform 2 (UniProt Q14839) | inactive: -0.043 |
| CEP76 (UniProt Q8TAP6) | inactive: -0.05 |
| CDK5RAP3 isoform 4 (UniProt Q96JB5) | inactive: -0.025 |
| CHKA (UniProt P35790) | inactive: 0.015 |
| CDC73 (UniProt Q6P1J9) | inactive: -0.362 |
| CHCHD3 (UniProt Q9NX63) | inactive: -0.042 |
| CDKAL1 (UniProt Q5VV42) | inactive: -0.017 |
| CDK13 (UniProt Q14004) | inactive: -0.032 |
| CFAP20 (UniProt Q9Y6A4) | inactive: -0.035 |
| CHD6 (UniProt Q8TD26) | inactive: -0.105 |
| CHMP4A isoform 2 (UniProt Q9BY43) | inactive: 0.025 |
| CHMP4B (UniProt Q9H444) | active: 0.255 |
| CDK11B (UniProt P21127) | inactive: -0.114 |
| CHMP3 (UniProt Q9Y3E7) | inactive: 0.043 |
| CFAP298 (UniProt P57076) | inactive: -0.077 |
| CETN2 (UniProt P41208) | inactive: -0.051 |
| CHAC2 (UniProt Q8WUX2) | inactive: 0.022 |

| Target | log2 fold change |
| --- | --- |
| CETN3 (UniProt O15182) | inactive: -0.016 |
| CHD3 isoform 3 (UniProt Q12873) | inactive: 0.023 |
| CFL2 (UniProt Q9Y281) | inactive: -0.05 |
| CHEK2 isoform 9 (UniProt O96017) | inactive: 0.067 |
| CFL1 (UniProt P23528) | inactive: 0.091 |
| CDCP1 (UniProt Q9H5V8) | inactive: -0.086 |
| CDS2 (UniProt O95674) | inactive: -0.014 |
| CDC42BPA isoform 6 (UniProt Q5VT25) | inactive: -0.325 |
| CEPT1 (UniProt Q9Y6K0) | inactive: -0.065 |
| CHAMP1 (UniProt Q96JM3) | inactive: -0.034 |
| CGGBP1 (UniProt Q9UFW8) | inactive: 0.054 |
| CDK5RAP1 (UniProt Q96SZ6) | inactive: -0.107 |
| CERS2 (UniProt Q96G23) | inactive: -0.015 |
| CDK16 isoform 2 (UniProt Q00536) | inactive: -0.07 |
| CDCA5 (UniProt Q96FF9) | inactive: -0.066 |
| CHMP4C (UniProt Q96CF2) | inactive: -0.003 |
| CELF2 isoform 3 (UniProt O95319) | inactive: -0.047 |
| CERS5 (UniProt Q8N5B7) | inactive: -0.045 |
| CDCA3 (UniProt Q99618) | inactive: -0.045 |

The targets below were run with NC(=O)c1cnc(N[C@@H]2CCCC[C@@H]2N)nc1Nc1cccc(-n2nccn2)c1 in the same assay as above.
Procedure, shortened: as §1

| Target | log2 fold change |
| --- | --- |
| CHIC2 (UniProt Q9UKJ5) | inactive: -0.149 |
| CFDP1 (UniProt Q9UEE9) | inactive: -0.004 |
| CHMP2A (UniProt O43633) | inactive: 0.012 |
| CHD4 isoform 2 (UniProt Q14839) | inactive: -0.07 |
| CEP76 (UniProt Q8TAP6) | inactive: -0.036 |
| CDK5RAP3 isoform 4 (UniProt Q96JB5) | inactive: -0.029 |
| CHKA (UniProt P35790) | active: -0.316 |
| CDC73 (UniProt Q6P1J9) | inactive: -0.077 |
| CHCHD3 (UniProt Q9NX63) | inactive: -0.053 |
| CDKAL1 (UniProt Q5VV42) | inactive: -0.071 |
| CDK13 (UniProt Q14004) | inactive: -0.007 |
| CFAP20 (UniProt Q9Y6A4) | inactive: -0.034 |
| CHD6 (UniProt Q8TD26) | inactive: 0.655 |
| CHMP4A isoform 2 (UniProt Q9BY43) | inactive: -0.06 |
| CHMP4B (UniProt Q9H444) | inactive: -0.011 |
| CDK11B (UniProt P21127) | inactive: -0.012 |
| CHMP3 (UniProt Q9Y3E7) | inactive: -0.047 |
| CFAP298 (UniProt P57076) | inactive: -0.085 |
| CETN2 (UniProt P41208) | inactive: 0.024 |
| CHAC2 (UniProt Q8WUX2) | inactive: -0.019 |

| Target | log2 fold change |
| --- | --- |
| CETN3 (UniProt O15182) | inactive: -0.059 |
| CHD3 isoform 3 (UniProt Q12873) | inactive: -0.152 |
| CFL2 (UniProt Q9Y281) | inactive: 0.068 |
| CHEK2 isoform 9 (UniProt O96017) | inactive: 0.015 |
| CFL1 (UniProt P23528) | inactive: 0.021 |
| CDCP1 (UniProt Q9H5V8) | inactive: 0.061 |
| CDS2 (UniProt O95674) | inactive: 0.049 |
| CDC42BPA isoform 6 (UniProt Q5VT25) | inactive: -0.334 |
| CEPT1 (UniProt Q9Y6K0) | inactive: -0.101 |
| CHAMP1 (UniProt Q96JM3) | inactive: -0.136 |
| CGGBP1 (UniProt Q9UFW8) | inactive: 0.016 |
| CDK5RAP1 (UniProt Q96SZ6) | inactive: 0.047 |
| CERS2 (UniProt Q96G23) | inactive: 0 |
| CDK16 isoform 2 (UniProt Q00536) | inactive: -0.091 |
| CDCA5 (UniProt Q96FF9) | inactive: -0.02 |
| CHMP4C (UniProt Q96CF2) | inactive: -0.005 |
| CELF2 isoform 3 (UniProt O95319) | inactive: 0.009 |
| CERS5 (UniProt Q8N5B7) | inactive: -0.018 |
| CDCA3 (UniProt Q99618) | inactive: -0.034 |
